The nature of data set [1]: in vivo. Conditions: po.
A short description of data set [2]: in vivo.

NOAEL and LD50 data for 1 molecule are collected here from patent US4210749A, “Substituted 1,2,4,5-tetrahydro-3H,3 benzazepines” (priority 1979, dated 1980).

The NOAEL is the highest tested level that showed no adverse finding. The term LD50 denotes the dose expected to kill half of the subjects tested. Higher therefore signals a less toxic substance. `CN1CC[C@]23c4c5ccc(O)c4O[C@H]2[C@@H](O)C=C[C@H]3[C@H]1C5` [Morphine, reference compound] displayed an NOAEL in data set [1] of 56 mg/kg. The LD50 in data set [2] (ip) is 250 mg/kg; in data set [2] (po) it was around 800 mg/kg.
